Data as given in the supplement of paper PMC12067093, “Discovery and optimisation of a covalent ligand for TRIM25 and its application to targeted protein ubiquitination” (Chemical Science, 2025).
This is one part of the list.

The chains behind the UniProt entries cited, without tags or fusion partners. Where a name states a change or a piece, a line headed by the entry shows the natural chain unless it says otherwise.
UniProt Q92616, whole entry, looked up: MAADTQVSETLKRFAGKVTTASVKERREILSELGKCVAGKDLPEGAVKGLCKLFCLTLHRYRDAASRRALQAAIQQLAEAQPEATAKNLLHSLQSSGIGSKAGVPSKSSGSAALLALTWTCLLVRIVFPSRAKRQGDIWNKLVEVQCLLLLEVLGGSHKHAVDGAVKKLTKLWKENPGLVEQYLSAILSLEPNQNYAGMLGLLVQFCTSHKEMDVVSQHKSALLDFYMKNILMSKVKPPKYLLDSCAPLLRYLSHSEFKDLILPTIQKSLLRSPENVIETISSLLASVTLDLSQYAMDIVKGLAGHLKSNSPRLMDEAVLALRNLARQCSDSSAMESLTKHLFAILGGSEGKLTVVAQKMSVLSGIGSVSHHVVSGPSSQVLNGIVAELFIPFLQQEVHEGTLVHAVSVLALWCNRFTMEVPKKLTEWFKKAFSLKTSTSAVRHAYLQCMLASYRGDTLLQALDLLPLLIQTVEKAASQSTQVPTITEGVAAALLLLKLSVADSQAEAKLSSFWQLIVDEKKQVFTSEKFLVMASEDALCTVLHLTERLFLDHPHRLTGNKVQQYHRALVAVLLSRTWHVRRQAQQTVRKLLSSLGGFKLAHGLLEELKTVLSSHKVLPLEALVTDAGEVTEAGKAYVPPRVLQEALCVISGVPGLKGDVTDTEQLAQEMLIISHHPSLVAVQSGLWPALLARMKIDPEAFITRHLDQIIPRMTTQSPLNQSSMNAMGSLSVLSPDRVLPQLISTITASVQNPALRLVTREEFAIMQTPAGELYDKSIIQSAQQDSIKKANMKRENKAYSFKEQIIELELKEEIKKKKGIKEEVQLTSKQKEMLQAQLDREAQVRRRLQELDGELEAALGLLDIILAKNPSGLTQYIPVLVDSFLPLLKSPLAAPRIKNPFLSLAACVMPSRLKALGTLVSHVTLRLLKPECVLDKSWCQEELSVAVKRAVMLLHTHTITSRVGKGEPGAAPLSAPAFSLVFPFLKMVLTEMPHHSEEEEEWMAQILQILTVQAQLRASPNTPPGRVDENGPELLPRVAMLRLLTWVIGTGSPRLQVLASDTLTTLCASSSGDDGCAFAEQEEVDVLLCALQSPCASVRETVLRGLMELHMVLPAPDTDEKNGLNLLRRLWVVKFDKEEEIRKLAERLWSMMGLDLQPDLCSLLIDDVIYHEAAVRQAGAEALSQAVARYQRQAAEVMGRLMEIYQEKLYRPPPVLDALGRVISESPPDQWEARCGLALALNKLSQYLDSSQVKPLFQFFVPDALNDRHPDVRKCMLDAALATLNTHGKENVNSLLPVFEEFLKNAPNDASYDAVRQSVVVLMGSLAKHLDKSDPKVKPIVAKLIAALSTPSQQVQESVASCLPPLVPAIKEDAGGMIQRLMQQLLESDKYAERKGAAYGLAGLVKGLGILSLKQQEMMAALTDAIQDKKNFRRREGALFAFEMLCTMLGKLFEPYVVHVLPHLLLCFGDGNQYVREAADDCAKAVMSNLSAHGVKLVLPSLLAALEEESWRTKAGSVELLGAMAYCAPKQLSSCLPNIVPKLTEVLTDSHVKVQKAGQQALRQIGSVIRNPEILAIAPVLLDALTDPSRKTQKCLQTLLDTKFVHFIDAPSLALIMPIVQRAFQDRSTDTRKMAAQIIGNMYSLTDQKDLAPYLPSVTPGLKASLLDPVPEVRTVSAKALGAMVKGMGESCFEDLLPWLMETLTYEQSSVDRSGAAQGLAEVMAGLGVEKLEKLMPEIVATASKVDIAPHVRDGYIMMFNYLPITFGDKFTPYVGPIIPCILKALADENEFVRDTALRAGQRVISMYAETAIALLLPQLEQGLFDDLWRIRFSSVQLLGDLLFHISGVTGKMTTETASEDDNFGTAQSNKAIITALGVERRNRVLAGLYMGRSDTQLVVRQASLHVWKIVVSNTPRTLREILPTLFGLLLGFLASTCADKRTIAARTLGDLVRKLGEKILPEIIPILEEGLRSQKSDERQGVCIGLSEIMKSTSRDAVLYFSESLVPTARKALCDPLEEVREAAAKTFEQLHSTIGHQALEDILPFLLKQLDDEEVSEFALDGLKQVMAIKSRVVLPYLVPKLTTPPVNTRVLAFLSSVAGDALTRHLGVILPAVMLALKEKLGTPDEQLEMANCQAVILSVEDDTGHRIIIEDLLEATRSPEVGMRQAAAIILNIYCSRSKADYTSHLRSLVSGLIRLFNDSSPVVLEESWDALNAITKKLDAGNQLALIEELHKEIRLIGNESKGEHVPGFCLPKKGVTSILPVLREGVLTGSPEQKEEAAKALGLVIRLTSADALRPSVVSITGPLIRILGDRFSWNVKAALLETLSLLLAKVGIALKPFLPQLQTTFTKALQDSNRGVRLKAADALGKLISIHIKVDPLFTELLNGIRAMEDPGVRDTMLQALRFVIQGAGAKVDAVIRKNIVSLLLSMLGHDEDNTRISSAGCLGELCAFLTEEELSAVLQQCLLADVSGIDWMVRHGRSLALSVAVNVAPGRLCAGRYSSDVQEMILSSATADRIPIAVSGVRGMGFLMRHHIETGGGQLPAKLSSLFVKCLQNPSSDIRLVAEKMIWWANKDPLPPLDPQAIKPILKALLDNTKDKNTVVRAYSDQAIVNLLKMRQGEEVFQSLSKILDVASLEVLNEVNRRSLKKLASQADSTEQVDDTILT
UniProt Q10472: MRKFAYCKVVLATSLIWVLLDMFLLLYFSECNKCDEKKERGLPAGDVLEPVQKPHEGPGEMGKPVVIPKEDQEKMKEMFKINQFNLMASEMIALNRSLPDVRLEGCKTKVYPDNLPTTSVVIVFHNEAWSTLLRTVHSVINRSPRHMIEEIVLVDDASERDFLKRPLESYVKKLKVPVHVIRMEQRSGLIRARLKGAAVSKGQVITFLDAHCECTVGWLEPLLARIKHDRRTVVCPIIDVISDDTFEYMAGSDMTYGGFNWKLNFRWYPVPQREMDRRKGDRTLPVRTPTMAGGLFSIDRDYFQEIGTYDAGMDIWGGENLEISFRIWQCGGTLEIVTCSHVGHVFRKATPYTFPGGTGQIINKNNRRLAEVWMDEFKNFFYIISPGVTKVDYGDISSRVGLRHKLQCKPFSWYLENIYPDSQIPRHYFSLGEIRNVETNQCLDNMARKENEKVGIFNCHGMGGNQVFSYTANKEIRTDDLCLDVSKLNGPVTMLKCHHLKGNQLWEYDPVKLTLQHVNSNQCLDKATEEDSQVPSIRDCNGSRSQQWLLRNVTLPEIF
UniProt Q9NY12: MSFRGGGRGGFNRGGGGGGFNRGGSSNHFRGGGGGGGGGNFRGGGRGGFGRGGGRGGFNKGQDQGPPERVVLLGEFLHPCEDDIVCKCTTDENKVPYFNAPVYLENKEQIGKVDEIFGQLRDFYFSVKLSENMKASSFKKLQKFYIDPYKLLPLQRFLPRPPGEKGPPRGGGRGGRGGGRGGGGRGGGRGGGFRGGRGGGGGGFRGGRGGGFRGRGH
UniProt Q14C86: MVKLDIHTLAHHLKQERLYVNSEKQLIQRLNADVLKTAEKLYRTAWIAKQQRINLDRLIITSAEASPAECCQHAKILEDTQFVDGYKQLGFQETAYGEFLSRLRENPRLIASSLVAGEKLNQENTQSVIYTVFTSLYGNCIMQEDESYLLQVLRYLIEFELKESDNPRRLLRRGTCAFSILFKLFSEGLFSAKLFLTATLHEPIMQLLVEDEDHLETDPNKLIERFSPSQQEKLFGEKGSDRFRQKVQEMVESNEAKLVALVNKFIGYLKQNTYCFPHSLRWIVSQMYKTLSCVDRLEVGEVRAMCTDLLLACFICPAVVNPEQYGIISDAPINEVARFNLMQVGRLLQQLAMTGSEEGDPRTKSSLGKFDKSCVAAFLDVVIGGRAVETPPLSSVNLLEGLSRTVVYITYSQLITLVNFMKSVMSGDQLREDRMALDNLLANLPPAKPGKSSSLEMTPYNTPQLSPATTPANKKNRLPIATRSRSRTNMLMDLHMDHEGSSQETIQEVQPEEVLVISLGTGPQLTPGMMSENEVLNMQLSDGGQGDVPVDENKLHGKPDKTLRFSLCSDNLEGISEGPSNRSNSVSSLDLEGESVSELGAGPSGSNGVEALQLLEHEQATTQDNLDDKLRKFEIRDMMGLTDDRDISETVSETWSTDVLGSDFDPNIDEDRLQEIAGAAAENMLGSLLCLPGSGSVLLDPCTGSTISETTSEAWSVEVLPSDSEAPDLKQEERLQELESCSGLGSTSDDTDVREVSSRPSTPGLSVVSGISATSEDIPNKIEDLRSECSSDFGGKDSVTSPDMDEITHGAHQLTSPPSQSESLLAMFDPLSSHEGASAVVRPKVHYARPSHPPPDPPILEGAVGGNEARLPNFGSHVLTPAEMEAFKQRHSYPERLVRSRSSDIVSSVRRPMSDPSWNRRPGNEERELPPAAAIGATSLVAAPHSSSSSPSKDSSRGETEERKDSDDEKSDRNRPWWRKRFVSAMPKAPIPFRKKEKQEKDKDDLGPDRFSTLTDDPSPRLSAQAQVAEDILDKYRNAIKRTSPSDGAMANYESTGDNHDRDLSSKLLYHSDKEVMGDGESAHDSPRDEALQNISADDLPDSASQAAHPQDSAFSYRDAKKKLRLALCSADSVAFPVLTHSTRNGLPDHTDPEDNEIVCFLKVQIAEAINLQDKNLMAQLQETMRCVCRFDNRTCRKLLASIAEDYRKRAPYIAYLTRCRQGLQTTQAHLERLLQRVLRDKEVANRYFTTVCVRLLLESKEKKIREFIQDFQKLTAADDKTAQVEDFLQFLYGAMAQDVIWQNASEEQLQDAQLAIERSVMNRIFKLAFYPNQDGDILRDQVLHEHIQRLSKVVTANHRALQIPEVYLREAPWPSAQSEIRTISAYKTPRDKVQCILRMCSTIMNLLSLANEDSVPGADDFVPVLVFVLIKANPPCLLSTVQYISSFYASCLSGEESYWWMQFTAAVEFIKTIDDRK
UniProt Q8NB37: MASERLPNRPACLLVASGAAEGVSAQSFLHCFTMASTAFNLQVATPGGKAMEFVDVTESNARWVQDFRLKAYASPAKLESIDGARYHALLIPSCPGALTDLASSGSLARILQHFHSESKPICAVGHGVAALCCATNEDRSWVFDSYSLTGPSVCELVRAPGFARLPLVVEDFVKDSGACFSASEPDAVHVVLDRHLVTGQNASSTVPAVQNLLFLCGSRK
UniProt Q9UG22: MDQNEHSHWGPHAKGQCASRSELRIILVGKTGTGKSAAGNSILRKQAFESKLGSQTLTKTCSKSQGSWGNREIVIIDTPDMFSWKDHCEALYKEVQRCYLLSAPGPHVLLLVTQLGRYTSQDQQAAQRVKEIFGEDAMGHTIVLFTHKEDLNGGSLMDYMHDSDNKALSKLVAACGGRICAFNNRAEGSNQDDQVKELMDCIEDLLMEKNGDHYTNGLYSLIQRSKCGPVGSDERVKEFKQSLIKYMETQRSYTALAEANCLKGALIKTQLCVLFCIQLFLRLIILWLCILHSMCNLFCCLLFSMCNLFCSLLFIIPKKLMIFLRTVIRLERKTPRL
UniProt Q9HCG7: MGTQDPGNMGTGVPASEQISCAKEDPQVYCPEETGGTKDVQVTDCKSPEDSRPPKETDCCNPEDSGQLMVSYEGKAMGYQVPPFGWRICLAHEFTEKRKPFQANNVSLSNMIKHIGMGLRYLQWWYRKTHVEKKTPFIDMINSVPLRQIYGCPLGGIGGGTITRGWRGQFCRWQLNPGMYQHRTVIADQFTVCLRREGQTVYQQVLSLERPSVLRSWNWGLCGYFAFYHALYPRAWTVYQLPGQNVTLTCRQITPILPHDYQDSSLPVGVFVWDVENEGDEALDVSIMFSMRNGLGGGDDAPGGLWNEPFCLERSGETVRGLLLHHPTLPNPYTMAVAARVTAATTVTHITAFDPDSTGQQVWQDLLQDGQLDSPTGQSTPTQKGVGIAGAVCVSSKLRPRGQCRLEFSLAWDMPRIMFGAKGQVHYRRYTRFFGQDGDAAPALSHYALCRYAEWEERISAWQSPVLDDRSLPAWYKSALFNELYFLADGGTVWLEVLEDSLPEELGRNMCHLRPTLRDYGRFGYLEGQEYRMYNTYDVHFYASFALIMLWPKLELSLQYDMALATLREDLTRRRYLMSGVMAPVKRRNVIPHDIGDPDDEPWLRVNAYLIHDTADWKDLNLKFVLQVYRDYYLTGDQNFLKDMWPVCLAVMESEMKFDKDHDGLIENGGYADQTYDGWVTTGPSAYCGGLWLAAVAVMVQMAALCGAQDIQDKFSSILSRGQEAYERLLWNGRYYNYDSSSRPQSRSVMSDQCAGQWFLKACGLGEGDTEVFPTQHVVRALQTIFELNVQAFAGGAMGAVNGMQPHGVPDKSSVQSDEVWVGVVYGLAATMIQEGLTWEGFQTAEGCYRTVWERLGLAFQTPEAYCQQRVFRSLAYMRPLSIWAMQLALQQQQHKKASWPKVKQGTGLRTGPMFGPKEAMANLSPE

Compound: Cc1cc(ccc1-c1ccccc1)C(=O)N1CCCN(CC1)C(=O)CCl [compound 10]
Assay: probe-labelled cysteine peptide fold change vs DMSO (competition) (log2 fold change); higher = less target engagement (more negative = stronger competition)
Conditions: THP-1, incubation time: 4 h
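Further: competitive profiling in live THP-1 cells: cysteine peptides tagged with an iodoacetamide desthiobiotin (IA-DTB) probe, intensity after compound treatment relative to DMSO-treated cells.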

Row | Target | probe-labelled cysteine peptide fold change (10 µM) | probe-labelled cysteine peptide fold change (50 µM)
1 | GANAB_Q14697_423_WNYRDEADVLEVDQGFDDHNLPCDVIWLDIEHADGKR (UniProt Q14697) | 0.00503 | 0.0629
2 | GCN1_Q92616_55_LFCLTLHR (UniProt Q92616) | -0.238 | -0.244
3 | GALNT1_Q10472_482_TDDLCLDVSK (UniProt Q10472) | -0.0304 | 0.189
4 | GAR1_Q9NY12_88_CTTDENK (UniProt Q9NY12) | -0.00656 | 0.0352
5 | GAPVD1_Q14C86_293_TLSCVDRLEVGEVR (UniProt Q14C86) | 0.0447 | 0.492
6 | GATD1_Q8NB37_179_DSGACFSASEPDAVHVVLDR (UniProt Q8NB37) | -0.357 | -0.147
7 | GALK2_Q01415_407_LTGAGWGGCTVSMVPADKLPSFLANVHK (UniProt Q01415) | -0.158 | -0.59
8 | GCN1_Q92616_1235_CGLALALNK (UniProt Q92616) | -0.258 | -0.353
9 | GIMAP2_Q9UG22_98_CYLLSAPGPHVLLLVTQLGR (UniProt Q9UG22) | -0.3 | 0.128
10 | GBA2_Q9HCG7_511_NMCHLRPTLR (UniProt Q9HCG7) | 0.199 | 0.0972
11 | GCAT_O75600_106_FICGTQSIHK (UniProt O75600) | 0.153 | -0.126
12 | GANAB_Q14697_423_WNYRDEADVLEVDQGFDDHNLPCDVIWLDIEHADGK (UniProt Q14697) | -0.0212 | 0.454
13 | GAPVD1_Q14C86_1129_LALCSADSVAFPVLTHSTR (UniProt Q14C86) | -0.0678 | -0.0181
14 | GALNT1_Q10472_523_LTLQHVNSNQCLDK (UniProt Q10472) | -0.174 | 0.0343

Rewritten with tabs: entries from further up
Row	Target	probe-labelled cysteine peptide fold change (10 µM)	probe-labelled cysteine peptide fold change (50 µM)
3	GALNT1_Q10472_482_TDDLCLDVSK (UniProt Q10472)	-0.0304	0.189
4	GAR1_Q9NY12_88_CTTDENK (UniProt Q9NY12)	-0.00656	0.0352
5	GAPVD1_Q14C86_293_TLSCVDRLEVGEVR (UniProt Q14C86)	0.0447	0.492
6	GATD1_Q8NB37_179_DSGACFSASEPDAVHVVLDR (UniProt Q8NB37)	-0.357	-0.147
